Results reported in publication PMC12594857.
No constants are given. Whether binding was seen depends on the method and setting. For part of these data: Binding seen in cells or lysates may run through a third protein. Some results given as binding are weak or reduced against the parent protein; the word gives no strength. For part of these data: Where a sequence is shown, tags or fusion partners need not be part of it.

The chains behind the UniProt entries cited, without tags or fusion partners.
UniProt O95347: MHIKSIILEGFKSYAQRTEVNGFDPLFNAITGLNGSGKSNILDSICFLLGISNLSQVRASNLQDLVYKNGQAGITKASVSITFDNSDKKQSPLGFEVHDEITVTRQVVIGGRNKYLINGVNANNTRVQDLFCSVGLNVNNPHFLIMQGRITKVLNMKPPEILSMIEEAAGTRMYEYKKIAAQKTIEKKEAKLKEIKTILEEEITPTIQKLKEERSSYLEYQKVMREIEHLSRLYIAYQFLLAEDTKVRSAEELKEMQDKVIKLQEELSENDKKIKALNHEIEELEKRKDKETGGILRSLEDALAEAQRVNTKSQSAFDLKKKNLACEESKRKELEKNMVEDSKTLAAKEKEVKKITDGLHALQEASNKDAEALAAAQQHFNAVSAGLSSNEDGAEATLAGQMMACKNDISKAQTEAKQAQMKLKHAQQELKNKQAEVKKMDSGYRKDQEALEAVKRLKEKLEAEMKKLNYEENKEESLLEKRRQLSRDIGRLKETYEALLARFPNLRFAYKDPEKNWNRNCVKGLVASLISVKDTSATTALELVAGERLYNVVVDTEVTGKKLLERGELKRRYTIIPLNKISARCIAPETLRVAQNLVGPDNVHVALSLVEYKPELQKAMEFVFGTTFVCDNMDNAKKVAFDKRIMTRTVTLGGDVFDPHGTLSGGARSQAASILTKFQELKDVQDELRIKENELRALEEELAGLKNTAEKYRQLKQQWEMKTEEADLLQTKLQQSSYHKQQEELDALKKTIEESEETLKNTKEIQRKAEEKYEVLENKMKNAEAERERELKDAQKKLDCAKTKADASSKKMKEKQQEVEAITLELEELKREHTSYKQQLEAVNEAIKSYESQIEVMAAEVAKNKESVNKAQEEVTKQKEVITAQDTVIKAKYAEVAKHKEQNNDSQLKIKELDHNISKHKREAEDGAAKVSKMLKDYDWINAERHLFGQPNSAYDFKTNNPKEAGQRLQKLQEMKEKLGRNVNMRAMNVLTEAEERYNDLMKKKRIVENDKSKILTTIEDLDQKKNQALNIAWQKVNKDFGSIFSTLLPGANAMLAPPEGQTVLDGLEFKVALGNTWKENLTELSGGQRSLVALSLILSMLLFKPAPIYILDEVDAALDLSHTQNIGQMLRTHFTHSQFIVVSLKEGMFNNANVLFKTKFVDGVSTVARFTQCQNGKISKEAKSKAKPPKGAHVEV
UniProt Q96GD4: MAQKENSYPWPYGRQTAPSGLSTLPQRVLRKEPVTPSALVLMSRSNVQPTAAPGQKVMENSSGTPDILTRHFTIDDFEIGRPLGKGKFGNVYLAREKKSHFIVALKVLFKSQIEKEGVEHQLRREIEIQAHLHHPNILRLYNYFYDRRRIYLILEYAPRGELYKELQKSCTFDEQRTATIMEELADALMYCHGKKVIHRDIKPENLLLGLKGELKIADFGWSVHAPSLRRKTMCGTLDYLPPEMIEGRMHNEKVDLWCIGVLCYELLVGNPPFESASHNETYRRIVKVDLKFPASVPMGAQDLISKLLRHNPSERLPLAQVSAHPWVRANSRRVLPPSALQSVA

How the values were obtained:
[1] = target: SMC2, endogenous (human (endogenous in HeLa)) (UniProt O95347); assay: co-IP; immunoprecipitation in mitotic cells, with or without pre-rRNAs (Fig. S8A)
[2] = target: T1, Aurora Kinase A (AURKA), endogenous (human (endogenous in HeLa)) (UniProt O14965); assay: co-IP; endogenous proteins; chromosome-binding proteins of HeLa cells synchronized at M phase by thymidine double blocking and shake-off, treated with Pol I inhibitors or DMSO (Fig. 3C, Fig. 6B)
T1 sequence: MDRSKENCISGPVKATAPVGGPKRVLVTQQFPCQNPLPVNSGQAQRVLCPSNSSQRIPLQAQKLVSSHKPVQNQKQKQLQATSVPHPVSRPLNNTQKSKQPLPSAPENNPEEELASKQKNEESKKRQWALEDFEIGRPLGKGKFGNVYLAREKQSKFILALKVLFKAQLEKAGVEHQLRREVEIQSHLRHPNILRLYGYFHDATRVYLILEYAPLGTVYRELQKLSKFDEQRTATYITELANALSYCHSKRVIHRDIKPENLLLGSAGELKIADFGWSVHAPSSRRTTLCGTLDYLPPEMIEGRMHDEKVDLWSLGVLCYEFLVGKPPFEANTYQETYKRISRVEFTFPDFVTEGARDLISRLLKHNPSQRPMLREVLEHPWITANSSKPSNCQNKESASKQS

GST-SMC2 = GST-SMC2 (UniProt O95347); assay: pull-down; GST fusion proteins bound to Glutathione Sepharose 4B incubated with purified His-tagged protein; 100 mM NaCl, 2 mM EDTA, 20 mM Tris-HCl pH 7.5, 2 mM DTT, 5% glycerol, 1% NP-40; immunoblot; both purified

AURKB, endogenous (from UniProt Q96GD4 1-344) (enzyme)
binding [1]: no binding

SMC2, endogenous (from UniProt O95347 1-1197)
binding [2]: binds

B1: His-AURKA (enzyme, UniProt O14965 1-403)
chain: T1 sequence
binding (GST-SMC2): binds
